According to US9273006B2, “Anabolic compounds for treating and preventing bone loss diseases” (SYDDANSK UNIVERSITET, priority 2012, dated 2016):
For at least one compound, name, drawing or mass did not settle the structure.

System: hMSC-TERT
Settings: 10 μM inhibitor in osteogenic inducing media, 6 days after induction

Cc1cc(O)c2c(=O)c3c(O)cc(O)c4c5c(O)cc(O)c6c(=O)c7c(O)cc(C)c8c1c2c(c34)c(c78)c65 [Hypericin]
Relative ALP activity: Toxic
